No constants are given. Whether binding was seen depends on the method and setting. In cells and extracts the contact can be indirect. Some entries that bind do so weakly or less than the wild type. Tags and fused reporters may be left off the sequences shown.
T1: Mcm4 (Saccharomyces cerevisiae) (UniProt P30665)
T1 sequence: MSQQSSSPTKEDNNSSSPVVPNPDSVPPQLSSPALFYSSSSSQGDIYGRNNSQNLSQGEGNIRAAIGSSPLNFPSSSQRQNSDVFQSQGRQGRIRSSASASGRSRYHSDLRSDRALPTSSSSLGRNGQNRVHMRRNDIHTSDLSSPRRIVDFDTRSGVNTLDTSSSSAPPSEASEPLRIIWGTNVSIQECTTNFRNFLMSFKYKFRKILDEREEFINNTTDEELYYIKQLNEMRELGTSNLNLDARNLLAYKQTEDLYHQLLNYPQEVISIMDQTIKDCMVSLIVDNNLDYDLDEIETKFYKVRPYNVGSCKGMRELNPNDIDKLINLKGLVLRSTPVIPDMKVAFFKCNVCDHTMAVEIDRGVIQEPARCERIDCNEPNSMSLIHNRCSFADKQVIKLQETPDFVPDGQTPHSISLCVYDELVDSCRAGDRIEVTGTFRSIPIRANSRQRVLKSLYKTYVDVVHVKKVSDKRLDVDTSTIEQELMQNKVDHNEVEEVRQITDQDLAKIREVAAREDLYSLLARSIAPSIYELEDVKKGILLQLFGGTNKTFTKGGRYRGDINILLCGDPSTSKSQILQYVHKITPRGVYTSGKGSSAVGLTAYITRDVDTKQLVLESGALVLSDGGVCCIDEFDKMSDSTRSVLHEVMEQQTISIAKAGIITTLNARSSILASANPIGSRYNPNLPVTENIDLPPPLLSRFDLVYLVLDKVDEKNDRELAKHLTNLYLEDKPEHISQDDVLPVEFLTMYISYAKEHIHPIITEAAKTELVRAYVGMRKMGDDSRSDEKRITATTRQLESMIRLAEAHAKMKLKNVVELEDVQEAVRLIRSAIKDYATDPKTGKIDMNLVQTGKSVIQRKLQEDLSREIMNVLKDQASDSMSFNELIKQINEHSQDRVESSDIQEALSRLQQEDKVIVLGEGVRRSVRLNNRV

T2: Mcm4-VC (Saccharomyces cerevisiae) (UniProt P30665)
T2 sequence: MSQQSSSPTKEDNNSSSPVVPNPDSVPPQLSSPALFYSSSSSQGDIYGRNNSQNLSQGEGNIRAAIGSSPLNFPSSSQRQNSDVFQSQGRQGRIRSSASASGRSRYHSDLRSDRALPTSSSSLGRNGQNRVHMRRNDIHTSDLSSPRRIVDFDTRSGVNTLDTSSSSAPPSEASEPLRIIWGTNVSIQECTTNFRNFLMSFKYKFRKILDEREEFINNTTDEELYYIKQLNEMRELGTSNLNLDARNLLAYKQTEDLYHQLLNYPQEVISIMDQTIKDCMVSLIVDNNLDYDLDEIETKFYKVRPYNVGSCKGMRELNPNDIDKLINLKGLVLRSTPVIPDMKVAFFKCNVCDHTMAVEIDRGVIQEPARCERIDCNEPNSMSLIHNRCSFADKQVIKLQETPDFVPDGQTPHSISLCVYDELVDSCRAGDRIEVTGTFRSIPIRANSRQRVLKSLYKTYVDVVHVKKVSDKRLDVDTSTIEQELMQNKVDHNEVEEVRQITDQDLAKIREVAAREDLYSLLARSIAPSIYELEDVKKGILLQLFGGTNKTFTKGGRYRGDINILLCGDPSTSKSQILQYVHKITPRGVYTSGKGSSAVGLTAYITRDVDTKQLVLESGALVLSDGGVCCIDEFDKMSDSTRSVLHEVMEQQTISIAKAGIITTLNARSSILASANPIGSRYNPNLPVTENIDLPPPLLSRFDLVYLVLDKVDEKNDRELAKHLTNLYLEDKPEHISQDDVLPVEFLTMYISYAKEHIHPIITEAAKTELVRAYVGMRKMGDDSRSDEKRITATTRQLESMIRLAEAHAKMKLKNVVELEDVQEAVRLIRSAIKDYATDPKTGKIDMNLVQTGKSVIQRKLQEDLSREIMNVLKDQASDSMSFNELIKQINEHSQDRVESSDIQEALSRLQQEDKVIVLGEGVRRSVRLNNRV

T3: Mcm4-GFP (Saccharomyces cerevisiae) (UniProt P30665)
T3 sequence: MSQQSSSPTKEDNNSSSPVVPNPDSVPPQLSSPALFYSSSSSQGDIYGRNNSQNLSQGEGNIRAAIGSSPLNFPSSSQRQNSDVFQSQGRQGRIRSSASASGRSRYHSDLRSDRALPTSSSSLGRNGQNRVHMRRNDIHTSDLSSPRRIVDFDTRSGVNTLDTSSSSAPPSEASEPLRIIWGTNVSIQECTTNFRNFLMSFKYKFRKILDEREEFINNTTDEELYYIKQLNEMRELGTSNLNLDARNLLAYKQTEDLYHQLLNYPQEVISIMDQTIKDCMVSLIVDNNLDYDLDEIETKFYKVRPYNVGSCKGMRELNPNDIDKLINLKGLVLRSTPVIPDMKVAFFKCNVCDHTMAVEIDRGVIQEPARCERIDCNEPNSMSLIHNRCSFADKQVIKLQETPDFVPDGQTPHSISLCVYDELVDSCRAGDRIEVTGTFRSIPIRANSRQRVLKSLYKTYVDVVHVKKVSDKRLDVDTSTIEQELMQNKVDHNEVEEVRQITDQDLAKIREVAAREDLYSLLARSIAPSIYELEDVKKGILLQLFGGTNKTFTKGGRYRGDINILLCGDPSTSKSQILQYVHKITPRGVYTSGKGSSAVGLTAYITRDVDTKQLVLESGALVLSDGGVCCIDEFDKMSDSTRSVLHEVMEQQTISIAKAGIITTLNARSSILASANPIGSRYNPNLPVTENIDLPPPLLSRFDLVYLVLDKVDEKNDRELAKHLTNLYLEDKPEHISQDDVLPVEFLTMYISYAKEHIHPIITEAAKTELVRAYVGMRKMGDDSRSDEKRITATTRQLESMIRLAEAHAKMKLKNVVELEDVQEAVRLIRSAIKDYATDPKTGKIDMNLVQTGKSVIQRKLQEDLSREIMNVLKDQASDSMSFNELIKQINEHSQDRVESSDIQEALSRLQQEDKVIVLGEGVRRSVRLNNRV

T4: Mcm7 (Saccharomyces cerevisiae) (UniProt P38132)
T4 sequence: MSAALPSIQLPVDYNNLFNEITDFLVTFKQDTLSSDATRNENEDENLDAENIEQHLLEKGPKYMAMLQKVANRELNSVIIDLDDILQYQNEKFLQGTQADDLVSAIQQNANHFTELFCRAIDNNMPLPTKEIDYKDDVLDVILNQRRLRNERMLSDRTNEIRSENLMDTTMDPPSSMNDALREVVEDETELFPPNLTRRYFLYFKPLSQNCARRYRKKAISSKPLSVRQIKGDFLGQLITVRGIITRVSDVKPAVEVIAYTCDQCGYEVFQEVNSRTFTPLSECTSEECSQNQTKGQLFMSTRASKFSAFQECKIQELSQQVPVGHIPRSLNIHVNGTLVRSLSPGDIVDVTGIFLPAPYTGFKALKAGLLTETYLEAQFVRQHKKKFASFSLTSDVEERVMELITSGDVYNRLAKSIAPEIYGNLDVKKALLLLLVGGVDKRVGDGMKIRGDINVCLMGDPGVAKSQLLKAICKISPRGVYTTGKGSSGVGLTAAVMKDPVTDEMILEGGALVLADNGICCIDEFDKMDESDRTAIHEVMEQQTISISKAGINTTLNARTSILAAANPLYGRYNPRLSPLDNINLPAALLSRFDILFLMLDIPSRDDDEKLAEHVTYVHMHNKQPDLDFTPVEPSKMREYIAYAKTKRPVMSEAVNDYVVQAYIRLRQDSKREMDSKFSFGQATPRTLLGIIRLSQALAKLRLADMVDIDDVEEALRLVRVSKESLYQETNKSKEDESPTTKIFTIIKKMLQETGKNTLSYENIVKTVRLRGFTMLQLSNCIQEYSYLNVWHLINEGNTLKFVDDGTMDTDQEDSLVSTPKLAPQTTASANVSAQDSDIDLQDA


Tests used:
[1] = molecular target: T1, Mcm4 (Saccharomyces cerevisiae); assay: co-IP; anti-Mcm4 antibody (3 μg/ml, overnight 4°C) and protein G dynabeads, NP40 lysis buffer; western blot with anti-Mcm4 and anti-Rnr antibodies; asynchronous cultures treated or not with 0.025% MMS for 2 hours; cells with Mcm4 or Mcm4-VC and Rnr4 or Rnr4-VN, with or without plasmid p314RNR4
[2] = molecular target: T2, Mcm4-VC (Saccharomyces cerevisiae); assay: as above
[3] = molecular target: T3, Mcm4-GFP (Saccharomyces cerevisiae); assay: co-IP; GFP-trap magnetic beads, NP40 lysis buffer (50mM Tris pH 7.5, 150mM NaCl, 1% NP40), lysate treated with MNaseI or benzonase, overnight 4°C; western blot; asynchronous or G1-arrested cultures treated or not with 0.025% MMS (or 0.2M HU) for 2 hours; also in rnr4Δ and dif1Δ wtm1Δ cells
[4] = molecular target: T3, Mcm4-GFP (Saccharomyces cerevisiae); assay: co-IP; as a2, in dun1Δ cells, in the absence and presence of 0.025% MMS
[5] = molecular target: T4, Mcm7 (Saccharomyces cerevisiae); assay: co-IP; anti-Mcm7 antibody and protein G dynabeads; asynchronous cultures of wild-type cells
[6] = molecular target: T3, Mcm4-GFP (Saccharomyces cerevisiae); assay: co-IP; as a2, GFP-trap magnetic beads, asynchronous cultures under unperturbed conditions only (no MMS, no HU)
[7] = molecular target: T4, Mcm7 (Saccharomyces cerevisiae); assay: co-IP; anti-Mcm7 antibody and protein G dynabeads; asynchronous cultures of the MCM4-VC mutant
[8] = molecular target: T4, Mcm7 (Saccharomyces cerevisiae); assay: as above; remark: listed apart in the source
[9] = molecular target: T2, Mcm4-VC (Saccharomyces cerevisiae); assay: split reporter; BiFC with the VN and VC domains of Venus on endogenously tagged proteins; fluorescence microscopy and flow cytometry of yeast cells synchronized in G1 and released, with and without 0.025% MMS; also in dif1Δ wtm1Δ cells

binding [1] | binding [2] | binding [3] | binding [4] | binding [5] | binding [6] | binding [7] | binding [9] | Binder | binding [8]
binds | binds | binds |  |  |  |  |  | Rnr3 (protein, UniProt P21672 1-869) MYVIKRDGRKEPVQFDKITSRITRLSYGLDPNRIDAVKVTQRIISGVYSGVTTVELDNLAAETCAYMTTVHPDYATLAARIAISNLHKQTTKQFSKVIEDLHDWINPATGKHAPMISDEIYNIVMENKDTLNSAIVYDRDFQYTYFGFKTLERSYLLRLNGEVAERPQHLVMRVALGIHGSDIESVLKTYNLMSLRYFTHASPTLFNAGTPHPQMSSCFLIAMKDDSIEGIYDTLKECAMISKTAGGVGLHINNIRSTGSYIAGTNGTSNGLIPMIRVFNNTARYVDQGGNKRPGAFALFLEPWHADIFDFVDIRKTHGKEEIRARDLFPALWIPDLFMKRVQEDGPWTLFSPSAAPGLDDVWGDEFEELYTRYEREGRGKTIKAQKLWYAILQAQTETGTPFMVYKDACNRKTNQQNLGTIKSSNLCCEIVEYSSPDETAVCNLASIALPAFVEVSEDGKTASYNFERLHEIAKVITHNLNRVIDRNYYPVPEARNSNMKHRPIALGVQGLADTYMMLRLPFESEEAQTLNKQIFETIYHATLEASCELAQKEGKYSTFEGSPASKGILQFDMWNAKPFGMWDWETLRKDIVKHGLRNSLTMAPMPTASTSQILGYNECFEPVTSNMYSRRVLSGEFQVVNPYLLRDLVDLGIWDDSMKQYLITQNGSIQGLPNVPQELKELYKTVWEISQKTIINMAADRAIYIDQSHSLNLFLQAPSMGKITSMHFYGWKKGLKTGMYYLRTQAASAAIQFTIDQEVADQAATHIASVSELDRPVYVPKGTKFSEQKAASALTESSDNEKDASPVPSEQSSVSSAMSNVKLEDSVAPAVPTETIKEDSDEKKCDIYNEKVIACTAPTPEACESCSG | 
binds | binds | binds | binds | binds | binds weakly | binds |  | Rnr1 (protein, UniProt P21524 1-888) MYVYKRDGRKEPVQFDKITARISRLCYGLDPKHIDAVKVTQRIISGVYEGVTTIELDNLAAETCAYMTTVHPDYATLAARIAISNLHKQTTKQFSKVVEDLYRYVNAATGKPAPMISDDVYNIVMENKDKLNSAIVYDRDFQYSYFGFKTLERSYLLRINGQVAERPQHLIMRVALGIHGRDIEAALETYNLMSLKYFTHASPTLFNAGTPKPQMSSCFLVAMKEDSIEGIYDTLKECALISKTAGGIGLHIHNIRSTGSYIAGTNGTSNGLIPMIRVFNNTARYVDQGGNKRPGAFALYLEPWHADIFDFIDIRKNHGKEEIRARDLFPALWIPDLFMKRVEENGTWTLFSPTSAPGLSDCYGDEFEALYTRYEKEGRGKTIKAQKLWYSILEAQTETGTPFVVYKDACNRKSNQKNLGVIKSSNLCCEIVEYSAPDETAVCNLASVALPAFIETSEDGKTSTYNFKKLHEIAKVVTRNLNRVIDRNYYPVEEARKSNMRHRPIALGVQGLADTFMLLRLPFDSEEARLLNIQIFETIYHASMEASCELAQKDGPYETFQGSPASQGILQFDMWDQKPYGMWDWDTLRKDIMKHGVRNSLTMAPMPTASTSQILGYNECFEPVTSNMYSRRVLSGEFQVVNPYLLRDLVDLGIWDEGMKQYLITQNGSIQGLPNVPQELKDLYKTVWEISQKTIINMAADRSVYIDQSHSLNLFLRAPTMGKLTSMHFYGWKKGLKTGMYYLRTQAASAAIQFTIDQKIADQATENVADISNLKRPSYMPSSASYAASDFVPAAVTANATIPSLDSSSEASREASPAPTGSHSLTKGMAELNVQESKVEVPEVPAPTKNEEKAAPIVDDEETEFDIYNSKVIACAIDNPEACEMCSG | no binding (condition: in cells of the MCM4-VC mutant)
binds | binds |  |  |  |  |  | binds | Rnr4-VN (protein, UniProt P49723 1-345) MEAHNQFLKTFQKERHDMKEAEKDEILLMENSRRFVMFPIKYHEIWAAYKKVEASFWTAEEIELAKDTEDFQKLTDDQKTYIGNLLALSISSDNLVNKYLIENFSAQLQNPEGKSFYGFQIMMENIYSEVYSMMVDAFFKDPKNIPLFKEIANLPEVKHKAAFIERWISNDDSLYAERLVAFAAKEGIFQAGNYASMFWLTDKKIMPGLAMANRNICRDRGAYTDFSCLLFAHLRTKPNPKIIEKIITEAVEIEKEYYSNSLPVEKFGMDLKSIHTYIEFVADGLLQGFGNEKYYNAVNPFEFMEDVATAGKTTFFEKKVSDYQKASDMSKSATPSKEINFDDDF | 

Reference: paper PMC11149843
